From paper doi:10.1101/2025.09.18.677151
These are yes or no findings as the source states them, for the method shown. For some assays here: Binding calls can cover weak binding; strength is not graded here. For some assays here: Tags and fused reporters may be left off the sequences shown.

Tests used:
[1] = target: N. salsuginis TatBC complex (Nitratifractor salsuginis); assay: cryo-EM structure
[2] = target: N. salsuginis TatAC complex (TatA-His6, TatC-strep) (Nitratifractor salsuginis); assay: pull-down

Binder | binding [1] | binding [2]
MQRRDFLKYSVALGVASALPLWSRAVFA (peptide, UniProt P36649 1-28) [CueO signal peptide (residues 1-28)] | binds | 
E. coli MdoD, full length, Myc tagged (protein, UniProt P40120 33-551) ADSDIADGQTQRFDFSILQSMAHDLAQTAWRGAPRPLPDTLATMTPQAYNSIQYDAEKSLWHNVENRQLDAQFFHMGMGFRRRVRMFSVDPATHLAREIHFRPELFKYNDAGVDTKQLEGQSDLGFAGFRVFKAPELARRDVVSFLGASYFRAVDDTYQYGLSARGLAIDTYTDSKEEFPDFTAFWFDTVKPGATTFTVYALLDSASITGAYKFTIHCEKSQVIMDVENHLYARKDIKQLGIAPMTSMFSCGTNERRMCDTIHPQIHDSDRLSMWRGNGEWICRPLNNPQKLQFNAYTDNNPKGFGLLQLDRDFSHYQDIMGWYNKRPSLWVEPRNKWGKGTIGLMEIPTTGETLDNIVCFWQPEKAVKAGDEFAFQYRLYWSAQPPVHCPLARVMATRTGMGGFSEGWAPGEHYPEKWARRFAVDFVGGDLKAAAPKGIEPVITLSSGEAKQIEILYIEPIDGYRIQFDWYPTSDSTDPVDMRMYLRCQGDAISETWLYQYFPPAPDKRQYVDDRVMS |  | no binding
